Results are given in words; binding and its absence hold for the method and conditions named. In cells and extracts the contact can be indirect. Some binding calls cover weakened binding; strength is not graded here.

Chains of the proteins cited; added tags and fusions are not shown.
UniProt P01101: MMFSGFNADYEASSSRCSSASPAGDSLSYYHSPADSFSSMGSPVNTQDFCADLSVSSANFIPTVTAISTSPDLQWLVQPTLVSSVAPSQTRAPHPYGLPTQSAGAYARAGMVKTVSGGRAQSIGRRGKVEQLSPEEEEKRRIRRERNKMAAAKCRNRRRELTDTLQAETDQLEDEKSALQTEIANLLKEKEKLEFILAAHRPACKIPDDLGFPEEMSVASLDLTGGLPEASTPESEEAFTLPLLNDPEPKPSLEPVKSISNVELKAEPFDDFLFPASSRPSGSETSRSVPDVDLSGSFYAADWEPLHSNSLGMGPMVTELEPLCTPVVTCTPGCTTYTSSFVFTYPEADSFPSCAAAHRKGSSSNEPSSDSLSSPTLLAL

Drawing on PMC10073124, this text covers binding for 1 substance.

The assay has as its target T1, Four and a half LIM domains 2 (FHL2) (mouse (endogenous in primary granulosa cells)) (UniProt O70433).
T1 sequence: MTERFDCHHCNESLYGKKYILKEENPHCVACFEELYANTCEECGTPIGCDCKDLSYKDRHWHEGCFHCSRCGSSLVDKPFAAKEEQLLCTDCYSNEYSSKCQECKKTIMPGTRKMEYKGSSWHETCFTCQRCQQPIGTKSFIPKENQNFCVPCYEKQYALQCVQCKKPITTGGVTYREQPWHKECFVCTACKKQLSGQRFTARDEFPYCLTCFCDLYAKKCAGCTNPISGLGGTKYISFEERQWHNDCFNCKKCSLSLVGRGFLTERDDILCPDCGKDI
Put plainly: co-IP; granulosa cell lysates incubated overnight with rabbit anti-FHL2 antibody or normal rabbit IgG; protein A/G agarose beads, 30 min at 4 °C; five washes with cell lysis buffer; western blot with anti-NF-κB and anti-AP-1 antibodies.

As for “c-fos (AP-1 transcription factor) (from UniProt P01101 1-380)”, the binding entry is “binds”.
